Values quoted from earlier work, collected in patent publication US4939177A, “Use of avarol for the control of AIDS and ARC” (Merz + Co. GmbH & Co., priority 1986, dated 1990).
At least one structure is not confirmed: it was looked up by name or label, or the drawing left a doubt.

Test system: AIDS patients
Conditions: cited from earlier work

In the case of `CCN(CC)C(=S)S` [DDC, diethyldithiocarbamate, reference compound], the immunomodulating activity is given as “immunomodulating activity”.
